Assay results reported in paper PMC4263151.
The exact form of at least one protein or probe is not confirmed. The comparison behind a weaker result is the experiment's own reference, which may not be listed here.

Protein sequences, listed by entry. Tags and fused reporters are not part of them.
UniProt Q00839, whole entry: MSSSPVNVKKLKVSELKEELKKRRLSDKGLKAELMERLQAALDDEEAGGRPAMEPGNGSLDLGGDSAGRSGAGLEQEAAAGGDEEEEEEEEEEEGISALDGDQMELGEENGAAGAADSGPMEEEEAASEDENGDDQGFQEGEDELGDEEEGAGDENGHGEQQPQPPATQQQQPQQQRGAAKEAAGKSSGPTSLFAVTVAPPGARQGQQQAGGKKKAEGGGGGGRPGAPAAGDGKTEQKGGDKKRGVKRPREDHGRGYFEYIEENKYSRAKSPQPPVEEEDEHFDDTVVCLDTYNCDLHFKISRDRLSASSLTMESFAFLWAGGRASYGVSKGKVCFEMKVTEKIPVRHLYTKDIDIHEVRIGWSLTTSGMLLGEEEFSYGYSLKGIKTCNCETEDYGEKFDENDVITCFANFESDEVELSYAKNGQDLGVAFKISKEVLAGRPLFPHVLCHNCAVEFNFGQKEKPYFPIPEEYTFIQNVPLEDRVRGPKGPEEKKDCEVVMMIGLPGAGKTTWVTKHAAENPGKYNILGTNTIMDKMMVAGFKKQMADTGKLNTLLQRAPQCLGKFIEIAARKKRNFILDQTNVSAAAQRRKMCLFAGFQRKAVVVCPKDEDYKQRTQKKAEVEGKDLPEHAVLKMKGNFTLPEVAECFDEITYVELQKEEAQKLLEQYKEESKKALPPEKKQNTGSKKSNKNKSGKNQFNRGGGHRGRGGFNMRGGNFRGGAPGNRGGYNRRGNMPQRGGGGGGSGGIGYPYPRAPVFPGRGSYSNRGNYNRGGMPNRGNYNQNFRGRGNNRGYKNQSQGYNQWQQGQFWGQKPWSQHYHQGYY

target: GST-SAFA (scaffold-attachment-factor A, hnRNP U) (UniProt Q00839); experiment: EMSA; conditions: salmon sperm DNA competitor; 10 mM HEPES pH 7.9, 1 mM DTT, 50 mM KCl, 2.5 mM MgCl2, 10% glycerol, 0.5 ug (printed 'ig') salmon sperm DNA, 15 min at 4 C; 10-500 ng protein; recombinant protein; protein details: GST (pGEX-4T); label: 32P end label (PNK); probe letters rebuilt from the primers and the genome

Sequence	binding result
GTATTCAGGTGGCTGAGGTGGGAGAATCGCTTGAACCTAGGAGGCGGAGGTTGCAGTGAGCTGAGATCATGCCACCTGCACTCCAGCCTGGGTGACAGAGTGAGACTCCGTCTCAAAAAAAAAATATATAAATCTTTGTGTAAAATGAAAAAAAAATCAAGGCATAAAAATTTCATTGTGTTCTACATTTTTAAATATAAATTGCCTCCTTTAAAATATTTTCATCCATTCATTCAAAAACCTTTTAACTTCAACTGTCCAATTTAAGATAGAGTGAAGACATTTTTGAGTATCTGAACTAAGCATTGTCTTGACTGAAACGAAGTAAGAACTCTATGAGAGTCCTTGTGGGCCTCCCGGTCATGCCTTTCCATAGATAGGGAACCTCATCTTTGTTGGTCATCACACCTGCTATGTC (double strand) [CDKN1A promoter 3141-3558]	binds more weakly
CGCGGTGCTTGGTCTCTATGAATACGATGACCTAAAGCAAAAAAAGAAGATGGCTATGTCGGTGAAGCTCTATGGAACTGGGGATCAGGAGGCCTGGCAGAAAGGAGTCCTGTTTGCTTCTGGGCAGAACTTGGCATGATGGAGACGCCAGCCAGCGAGATGATGCCAACCAGATTTGCCGAAATTATTGAGAAGAATCTCAAAAGCGCTAGTAGTAAACCGAGTTTCATATCAGACCCAGGTCTTGGATTGAGGAACAGGCAATGGGATCATTCCTCAGTGTGGCCAAAGGATCTGACGAGCCCTCAGTCTTCTTGGAAATTCACTACATAGGCAGCCCCAATGCAGACAAACCACCCCTTGTTTGTTGGGAAAGG (double strand) [CDKN1A promoter 4149-4525 (protrudes into PANDA)]	binds
GGAGGCAAAAGTCCTGTGTTCCAACTATAGTCATTTCTTTGCTGCATGATCTGAGTTAGGTCACCAGACTTCTCTGAGCCCCAGTTTCCCCAGCAGTGTATACGGGCTATGTGGGGAGTATTCAGGAGACAGACAACTCACTCGTCAAATCCTCCCCTTCCTGGCCAACAAAGCTGCTGCAACCACAGGGATTTCTTCTGTTCAGGTGAGTGTAGGGTGTAGGGAGATTGGTTCAATGTCCAATTCTTCTGTTTCCCTGGAGATCAGGTTGCCCTTTTTTGGTAGTCTCTCCAATTCCCTCCTTCC (double strand) [CDKN1A promoter 677-981]	binds
GAAATGCCTGAAAGCAGAGGGGCTTCAAGGCAGTGGGAGAAGGTGCCTGTCCTCTGCTGGACATTTGACAACCAGCCCTTTGGATGGTTTGGATGTATAGGAGCGAAGGTGCAGACAGCAGTGGGGCTTAGAGTGGGGTCCTGAGGCTGTGCCGTGGCCTTTCTGGGGTTTAGCCACAATCCTGGCCTGACTCCAGGGCGAGGCAGGCCAAGGGGGTCTGCTACTGTGTCCTCCCACCCCTACCTGGGCTCCCATCCCCACAGCAGAGGAGAAAGAAGCCTGTCCTCCCCGAGGTCAGCTGCGTTAGAGGAAGAAGACTGGGCATGTCTGGGCAGAGATTTCCAGACTCTGAGC (double strand) [CDKN1A promoter 1335-1688]	binds more weakly
CTGACTCCCAGCACACACTCACACAAGCACACATGCATCAGATCCCAGCCCTGTCGCAAGGATCTGCTGGCAGATCACATACCCTGTTCAGAGTAACAGGCTAAGGTTTACCTGGGGTCTTTAGAGGTCTCCTGTCTCCTACCATCCCCTTCCTCACCTGAAAACAGGCAGCCCAAGGACAAAATAGCCACCAGCCTCTTCTATGCCAGAGCTCAACATGTTGGGACATGTTCCTGACGGCCAGAAAGCCAATCAGAGCCACAGCCTGCTGCCCAAGCATGTTCCTGGGAAGCAGGCAGCATAGGGATGGAGGGAGGCTCAGCCTGGGGGACAAGAGTGCCCAGTCCAGCCCCCTCCCCAGAGTGCGGTGGAGCAGCATGGGGTAGGGGAATGGTGAAAGGTGGAAAGCCCAAGCCTGAAGAAGGAGGATGTGAGGAAGGCTCAGTGGTG (double strand) [CDKN1A promoter 2029-2478]	binds
